Laboratory results: patent publication US6448024B1, “Method, reagent, cartridge, and device for determining fibrinogen” (Roche Diagnostics Corporation, priority 2000, dated 2002)
At least one structure is not confirmed: it was looked up by name or label, or the drawing left a doubt. Starred links: 1 amine or outer side, 2 acyl side, 3 side chain; linkers in the order of their positions; H or OH if unused. Residues, ends and D or L forms follow the SMILES beside them. CO = O=C([*:1])[*:2]

Columns and labels:
thrombin [1] = assay: Wet screening assay for thrombin inhibitors with BBL Fibrometer (clotting time of fibrinogen solutions); type: biochemical, human plasma or bovine; conditions: result in words
Procedure: Materials and Methods: A phosphate buffered saline (PBS)-albumin solution was formed as follows:
2) 100 U/mL thrombin working solution; thrombin was obtained from Calbiochem (605206—human plasma, or 605157—bovine); and
3) fibrinogen working solutions having fibrinogen concentrations ranging from between 6 and 24 mg/mL fibrinogen; fibrinogen was obtained from Calbiochem (341578).
Screening Assay Procedure Using Fibrometer: A BBL Fibrometer was utilized to determine clotting times of test solutions. Test solutions were formed by adding the following components in the following order:
1. 200 μL D.S. working solution,
2. 50 μL thrombin working solution,
3. 50 μL fibrinogen working solution.
Immediately upon addition of the third component (i.e., the fibrinogen working solution), the fibrometer was activated, resulting in the probe being released into the vessel containing the reaction solution. The probe was agitated until sufficient resistance to motion was reached corresponding to a predetermined degree of clotting. A display indicated time from activation of the probe until the predetermined degree of clotting was reached.
Using the method of Example 1, 15 mg/mL benzamidine (Sigma B6506) in the PBS-albumin solution (final concentration) was contacted with samples containing varying amounts of fibrinogen.

thrombin [2] = assay: One or both of the two assays (wet and cartridge), summary of effective thrombin inhibitors; type: biochemical; conditions: wet and/or cartridge assay; result in words

CC(C)[C@H](NC(=O)[C@H](CCCNC(=N)N)NC(=O)N[C@@H](Cc1ccccc1)C(=O)O)C(=O)N[C@H](C=O)CCCNC(=N)N [antipain] ({Phe-CO}-Arg-Val-Arg-aldehyde)
Found useful/effective as thrombin inhibitor in fibrometer wet assay (thrombin [1]): effective | Thrombin inhibitor found to be effective (thrombin [2]): effective
